Results are given in words; binding and its absence hold for the method and conditions named. Binding seen in cells or lysates may run through a third protein. These calls come from enrichment with a bait or labelling near it, and not all partners need be listed.
Target: fibrinogen (UniProt P02671)
Assay: immunoprecipitation from human MS brain myelin homogenate on Protein A/G plates, mass spectrometry

Amino acid sequences for entries named in this document (tags omitted). A change or cut given only in a name is not applied to a line headed by its entry.
UniProt P02671: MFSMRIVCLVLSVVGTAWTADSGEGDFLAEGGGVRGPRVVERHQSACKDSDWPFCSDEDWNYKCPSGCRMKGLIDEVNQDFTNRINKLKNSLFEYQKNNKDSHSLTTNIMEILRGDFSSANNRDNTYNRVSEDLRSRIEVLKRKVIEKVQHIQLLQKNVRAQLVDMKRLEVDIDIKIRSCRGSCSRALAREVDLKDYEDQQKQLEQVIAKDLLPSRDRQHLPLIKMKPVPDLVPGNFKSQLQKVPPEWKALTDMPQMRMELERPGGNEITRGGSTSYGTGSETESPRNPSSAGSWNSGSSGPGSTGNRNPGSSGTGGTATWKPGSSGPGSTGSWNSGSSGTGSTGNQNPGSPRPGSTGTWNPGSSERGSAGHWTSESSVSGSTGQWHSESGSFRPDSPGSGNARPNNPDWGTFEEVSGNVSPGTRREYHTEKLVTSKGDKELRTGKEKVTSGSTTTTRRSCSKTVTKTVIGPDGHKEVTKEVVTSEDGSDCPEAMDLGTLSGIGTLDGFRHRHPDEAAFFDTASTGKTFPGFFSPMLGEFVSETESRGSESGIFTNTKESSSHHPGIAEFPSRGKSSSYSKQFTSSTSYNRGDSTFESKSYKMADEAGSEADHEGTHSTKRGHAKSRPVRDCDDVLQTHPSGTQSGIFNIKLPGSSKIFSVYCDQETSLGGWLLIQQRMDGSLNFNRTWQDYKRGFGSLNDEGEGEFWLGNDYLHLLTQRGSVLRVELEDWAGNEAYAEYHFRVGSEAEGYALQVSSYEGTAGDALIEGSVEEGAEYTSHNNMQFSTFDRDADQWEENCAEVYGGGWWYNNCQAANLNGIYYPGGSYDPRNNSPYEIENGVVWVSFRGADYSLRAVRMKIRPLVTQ

B1: Antibody G (45-C1C3) (antibody, V domains shown)
VH: EVQLVESGGGAVQPGRSLRLSCAASGVSFSNIGMHWVRQAPGKGLEWVALISSDGRHTHYADSVKGRFTISRDNSENTLYLQINGLRADDTAVYYCAKGLDTRARYMGKFYTFDYWGQGTLVTVSS
VL: DIQLTQSPSSLSASVGDRVTITCRASQNIGVNLNWYQQRPGKGPKLLVSSTFSLQSGVPSRFSASGAGTNFTLTISSLQPEDYVTYYCQQSYSSPFTFGPGTKVDIK
notes: also called mAb G; Ab G
binding: binds
